{"sequences": {"note": "By UniProt entry, the sequences of proteins in these tests, tags left out. Residues count along the entry.", "UniProt P13569, whole entry": "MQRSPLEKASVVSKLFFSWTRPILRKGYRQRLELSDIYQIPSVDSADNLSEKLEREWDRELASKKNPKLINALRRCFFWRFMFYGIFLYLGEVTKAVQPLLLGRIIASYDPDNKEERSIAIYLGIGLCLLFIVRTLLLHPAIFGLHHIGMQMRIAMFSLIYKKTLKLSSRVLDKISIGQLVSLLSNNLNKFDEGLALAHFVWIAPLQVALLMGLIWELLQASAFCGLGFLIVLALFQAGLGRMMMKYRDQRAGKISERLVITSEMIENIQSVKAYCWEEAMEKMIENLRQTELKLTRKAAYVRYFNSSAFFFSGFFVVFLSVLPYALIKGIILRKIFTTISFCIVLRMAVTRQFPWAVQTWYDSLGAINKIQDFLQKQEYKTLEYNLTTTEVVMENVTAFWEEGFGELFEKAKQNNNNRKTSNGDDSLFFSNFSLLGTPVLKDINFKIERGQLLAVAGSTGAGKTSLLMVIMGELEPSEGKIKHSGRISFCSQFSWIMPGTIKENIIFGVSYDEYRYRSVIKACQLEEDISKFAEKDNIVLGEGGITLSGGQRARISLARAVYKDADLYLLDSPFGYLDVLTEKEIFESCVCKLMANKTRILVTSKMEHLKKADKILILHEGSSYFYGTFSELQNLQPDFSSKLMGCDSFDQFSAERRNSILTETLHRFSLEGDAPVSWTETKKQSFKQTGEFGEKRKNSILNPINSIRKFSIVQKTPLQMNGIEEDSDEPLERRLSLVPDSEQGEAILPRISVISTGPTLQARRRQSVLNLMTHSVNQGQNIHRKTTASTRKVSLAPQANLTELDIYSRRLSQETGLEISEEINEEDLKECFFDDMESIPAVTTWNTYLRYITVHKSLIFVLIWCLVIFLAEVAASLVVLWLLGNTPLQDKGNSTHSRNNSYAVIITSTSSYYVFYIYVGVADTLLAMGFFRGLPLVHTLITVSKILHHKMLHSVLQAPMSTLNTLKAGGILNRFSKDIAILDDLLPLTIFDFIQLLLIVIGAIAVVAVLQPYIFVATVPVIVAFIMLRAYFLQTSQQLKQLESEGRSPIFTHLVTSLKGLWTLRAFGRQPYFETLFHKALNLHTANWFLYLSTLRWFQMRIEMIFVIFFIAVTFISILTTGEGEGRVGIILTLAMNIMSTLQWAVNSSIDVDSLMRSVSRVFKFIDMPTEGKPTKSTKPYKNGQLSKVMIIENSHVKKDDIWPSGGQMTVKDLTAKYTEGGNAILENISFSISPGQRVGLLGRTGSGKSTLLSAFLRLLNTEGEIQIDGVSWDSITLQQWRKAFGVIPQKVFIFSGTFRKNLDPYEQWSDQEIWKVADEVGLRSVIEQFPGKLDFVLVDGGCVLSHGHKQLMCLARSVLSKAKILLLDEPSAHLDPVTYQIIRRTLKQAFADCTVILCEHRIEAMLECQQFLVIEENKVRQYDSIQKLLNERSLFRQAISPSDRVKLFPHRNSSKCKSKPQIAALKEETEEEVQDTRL", "UniProt P27815, 1-647 isoform 4": "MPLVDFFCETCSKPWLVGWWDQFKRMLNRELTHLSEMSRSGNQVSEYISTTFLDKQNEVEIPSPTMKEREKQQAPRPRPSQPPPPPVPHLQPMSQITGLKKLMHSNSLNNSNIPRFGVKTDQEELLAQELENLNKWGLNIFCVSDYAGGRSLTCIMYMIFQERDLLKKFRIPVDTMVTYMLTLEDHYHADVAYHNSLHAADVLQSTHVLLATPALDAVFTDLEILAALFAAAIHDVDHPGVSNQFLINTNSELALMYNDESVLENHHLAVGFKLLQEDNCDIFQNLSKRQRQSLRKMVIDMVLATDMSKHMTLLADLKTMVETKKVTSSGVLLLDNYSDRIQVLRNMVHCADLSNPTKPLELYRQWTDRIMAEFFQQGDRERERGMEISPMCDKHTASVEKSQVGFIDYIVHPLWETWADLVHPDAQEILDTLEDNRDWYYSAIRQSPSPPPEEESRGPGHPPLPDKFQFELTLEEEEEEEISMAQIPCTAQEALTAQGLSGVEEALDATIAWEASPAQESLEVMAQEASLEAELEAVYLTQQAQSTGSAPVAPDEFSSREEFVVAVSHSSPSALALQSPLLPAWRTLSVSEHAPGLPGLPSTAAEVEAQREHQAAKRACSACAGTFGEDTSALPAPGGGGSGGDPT", "UniProt Q07343, whole entry": "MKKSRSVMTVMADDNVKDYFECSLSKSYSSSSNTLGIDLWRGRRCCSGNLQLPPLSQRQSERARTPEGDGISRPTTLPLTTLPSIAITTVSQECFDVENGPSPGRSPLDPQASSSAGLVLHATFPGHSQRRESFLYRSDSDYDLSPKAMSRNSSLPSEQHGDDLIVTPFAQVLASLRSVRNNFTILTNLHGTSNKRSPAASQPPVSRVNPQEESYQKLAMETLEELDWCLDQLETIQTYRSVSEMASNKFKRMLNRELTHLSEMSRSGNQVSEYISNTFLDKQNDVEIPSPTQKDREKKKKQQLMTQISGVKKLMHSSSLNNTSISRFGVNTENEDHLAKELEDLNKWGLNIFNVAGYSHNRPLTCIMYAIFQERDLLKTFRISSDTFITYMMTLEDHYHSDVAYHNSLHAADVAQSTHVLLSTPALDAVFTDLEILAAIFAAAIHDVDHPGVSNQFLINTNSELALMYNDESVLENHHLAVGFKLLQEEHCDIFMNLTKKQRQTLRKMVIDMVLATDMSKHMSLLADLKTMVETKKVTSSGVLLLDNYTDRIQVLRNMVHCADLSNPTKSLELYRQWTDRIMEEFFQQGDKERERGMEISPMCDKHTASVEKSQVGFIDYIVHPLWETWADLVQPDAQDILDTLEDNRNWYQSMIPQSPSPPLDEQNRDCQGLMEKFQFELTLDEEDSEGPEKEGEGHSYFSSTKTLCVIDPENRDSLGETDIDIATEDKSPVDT", "UniProt Q08493, whole entry": "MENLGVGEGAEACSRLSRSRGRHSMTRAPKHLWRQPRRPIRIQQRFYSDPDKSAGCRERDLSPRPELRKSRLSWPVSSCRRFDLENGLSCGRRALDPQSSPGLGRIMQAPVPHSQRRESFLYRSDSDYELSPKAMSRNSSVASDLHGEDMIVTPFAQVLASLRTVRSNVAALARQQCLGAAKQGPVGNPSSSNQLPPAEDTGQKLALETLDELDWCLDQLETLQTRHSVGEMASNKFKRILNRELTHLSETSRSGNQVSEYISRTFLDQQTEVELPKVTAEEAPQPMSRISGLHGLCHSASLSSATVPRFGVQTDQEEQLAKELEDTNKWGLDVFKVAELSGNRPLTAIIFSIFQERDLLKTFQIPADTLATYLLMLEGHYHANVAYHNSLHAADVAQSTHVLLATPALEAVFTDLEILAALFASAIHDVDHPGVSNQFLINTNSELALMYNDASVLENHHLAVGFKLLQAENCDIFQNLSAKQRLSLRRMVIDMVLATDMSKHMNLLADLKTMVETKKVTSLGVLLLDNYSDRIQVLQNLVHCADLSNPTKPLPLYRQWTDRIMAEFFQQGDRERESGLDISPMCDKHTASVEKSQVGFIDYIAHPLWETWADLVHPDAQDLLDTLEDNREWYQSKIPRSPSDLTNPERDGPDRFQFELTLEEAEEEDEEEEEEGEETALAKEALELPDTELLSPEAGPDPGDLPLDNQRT", "UniProt Q08499, 303-809 limits assumed": "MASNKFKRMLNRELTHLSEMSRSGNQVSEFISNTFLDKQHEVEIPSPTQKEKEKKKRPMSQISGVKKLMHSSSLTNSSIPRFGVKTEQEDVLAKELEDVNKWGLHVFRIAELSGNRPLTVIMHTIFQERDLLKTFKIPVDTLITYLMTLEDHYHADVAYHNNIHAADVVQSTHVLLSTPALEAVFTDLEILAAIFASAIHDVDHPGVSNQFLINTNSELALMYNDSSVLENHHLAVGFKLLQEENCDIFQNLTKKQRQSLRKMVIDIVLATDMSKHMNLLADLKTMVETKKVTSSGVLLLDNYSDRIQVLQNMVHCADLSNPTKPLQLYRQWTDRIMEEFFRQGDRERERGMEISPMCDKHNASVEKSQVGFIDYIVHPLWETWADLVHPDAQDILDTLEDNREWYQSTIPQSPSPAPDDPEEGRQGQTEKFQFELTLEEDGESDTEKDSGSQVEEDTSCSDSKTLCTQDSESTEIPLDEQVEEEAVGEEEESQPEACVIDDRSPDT"}, "source": "patent US20240199623A1", "about": "(ILDONG PHARMACEUTICAL CO., LTD., priority 2020, published 2024)", "key": {"[1]": {"assay": "Phosphate-buffered saline (PBS) solubility of compounds", "format": "physicochemical", "conditions": "PBS pH 7.5, 0.5 mg/mL, vortexed 90 min, filtered, LC-MS/MS", "description": "PBS solutions (pH 7.5) were prepared according to the following compositions and stored at 4° C. Test compounds were dissolved in PBS (pH 7.5) at 0.5 mg/mL and vortexed for 90 min. The PBS solution was sequentially filtered through a 0.45, 1.2, […] syringe filter. Concentration of test compounds were determined using LC-MS/MS with appropriate dilution of the samples."}, "human wild type-CFTR [2]": {"molecular_target": "T1, human wild type-CFTR (Homo sapiens, UniProt P13569)", "assay": "Cell-based YFP assay", "conditions": "read-out: Cell-based YFP Assay (EC50) Concentration Range; CHO-K1 cells expressing human wild type-CFTR and YFP-H148Q/I152L; forskolin 20 μM = 100% activity"}, "human wild type-CFTR [3]": {"molecular_target": "T1, human wild type-CFTR", "assay": "Short-circuit current measurement", "format": "cell-based", "conditions": "read-out: Short-circuit current measurement (EC50) Concentration range; FRT cells expressing human wild type-CFTR; Forskolin 20 μM signal used as 100% activity"}, "C57BL/6 female mice": {"tested_on": "C57BL/6 female mice", "assay": "Scopolamine induced tear volume reduction model", "format": "in vivo, mouse", "conditions": "scopolamine-injected mice, ophthalmic solution topically on both eyes 3 times a day, phenol red thread; average if evaluated twice"}, "[4]": {"molecular_target": "Human recombinant PDE4A1A (Homo sapiens, UniProt P27815)", "assay": "Human phosphodiesterase 4 (PDE4) inhibition, PDE4A1A", "conditions": "10 uM test compound"}, "[5]": {"molecular_target": "Human recombinant PDE4B 1 (Homo sapiens, UniProt Q07343)", "assay": "Human phosphodiesterase 4 (PDE4) inhibition, PDE4B 1", "conditions": "10 uM test compound"}, "Human recombinant PDE4C1": {"molecular_target": "Human recombinant PDE4C1 (Homo sapiens, UniProt Q08493)", "assay": "Human phosphodiesterase 4 (PDE4) inhibition, PDE4C1", "conditions": "10 uM test compound"}, "Human recombinant PDE4D2": {"molecular_target": "Human recombinant PDE4D2 (Homo sapiens, UniProt Q08499)", "assay": "Human phosphodiesterase 4 (PDE4) inhibition, PDE4D2", "conditions": "10 uM test compound"}}, "note": "The structures given here were assigned with low confidence; some may be wrong.", "data": [{"smiles": "COc1ccc(-c2ccnc3cc(C(=O)NC45CC(C(=O)N6CCOCC6)(C4)C5)nn23)cc1OC", "values": [{"measurement": "Solubility Range", "setting": "[1]", "value": "B ((B) refers to 100<B<10,000 ng/mL)"}, {"measurement": "EC50", "setting": "human wild type-CFTR [2]", "value": "200 to 2000", "unit": "nM"}, {"measurement": "EC50", "setting": "human wild type-CFTR [3]", "value": "> 2000", "unit": "nM"}, {"measurement": "Ratio of tear volume (test compound to vehicle)", "setting": "C57BL/6 female mice", "value": 1.35}, {"measurement": "% inhibition range at 10 uM PDE4A1A", "setting": "[4]", "value": "A ((A) refers to ≥80% inhibition)"}, {"measurement": "% inhibition range at 10 uM PDE4B1", "setting": "[5]", "value": "A ((A) refers to ≥80% inhibition)"}, {"measurement": "% inhibition range at 10 uM PDE4C1", "setting": "Human recombinant PDE4C1", "value": "B ((B) refers to 50%≤inhibition<80%)"}, {"measurement": "% inhibition range at 10 uM PDE4D2", "setting": "Human recombinant PDE4D2", "value": "A ((A) refers to ≥80% inhibition)"}]}]}
